Reference: US4556674A, “2-Imino-pyrrolidines, process for their preparation, and therapeutic compositions containing same” (Laboratoires Jacques Logeais, priority 1983, dated 1985)
At least one structure is not confirmed: it was looked up by name or label, or the drawing left a doubt.

System: human plasma clots
Assay: Fibrinolytic activity (lysis of human plasma clots)
Set-up: unit not given here
Conditions: veronal buffer pH 7.2-7.4, 37° C.
Method: The following method was used.
Human plasma clots were prepared by recalcification (one drop of calcium thrombase at 20 U/ml per 0.5 ml of plasma), so that the clot formed around the hook of a glass rod. The clots were then suspended in buffered solutions (veronal buffer pH 7.2-7.4) maintained at 37° C. The eventual lysis of the clot is recorded after 24 hrs and 48 hrs incubation.

For `CN1CC(c2ccccc2)CC1=NCCc1ccccc1` (stereo not shown) [Example 1, 1-Methyl-4-phenyl-2-phenylethylimino-pyrrolidine], which “Concentration inducing lysis of the clot within 48 hours” value is on record?
Its value is 10-20.
